Source: patent publication US20140350050A1, “PYRIDINE COMPOUNDS AS INHIBITORS OF KINASE” (TELIGENE LTD., priority 2011, published 2014)
At least one compound was matched to its structure with a doubt left.

Test system: EML4-ALK-BAF3 cell line xenograft
Assay type: in vivo
Conditions: 40 mg/kg oral gavage once daily
Text: A representative protocol for the in vivo experiment is as followed to establish the subcutaneous EML4-ALK-BAF3 cell line xenograft model in nude mice and to evaluate the in vivo therapeutic efficacy of the compounds: Animals: Male Balb/c nude mice (6˜8 weeks old) were obtained from SLAC Laboratory Animal, Shanghai, China. Animals were maintained under SPF conditions in sterile filter top cages and housed on HEPA-filtered ventilated racks. Animals received sterile rodent chow and water ad libitum. Cell line: BAF3-EML4-ALK stable cell line, the BAF3 cell which could expressed fusion oncogene EML4-ALK. S.c. Xenograft Models in Athymic Mice: Cells for implantation into athymic mice were harvested and pelleted by centrifugation at 1200 r/min for 5 min. Cells were washed once and resuspended in sterile PBS buffer with 5×10^6 in 200 μl. Then cells were implanted s.c. into the right scapular region of each mouse and allowed to grow to 200˜300 mm^3 before the administration of compound. Preparation of the Dose Formulation: each compound was suspensioned in 0.5% CMC-Na. […] At the time of routine monitoring, the animals will be checked for any effects of tumor growth and treatments on normal behavior such as mobility, body weight gain/loss (body weights will be measured twice weekly or every other day), eye/hair matting and any other abnormal effect. Death and observed clinical signs will be recorded on the basis of the numbers of animals within each subset. Tumor Size Measurements: Tumor volume was determined by measurement with electronic vernier calipers every 3 days and tumor volume was calculated as the product of its length×width^2×0.5. […] Significant differences between the treated versus the control groups (p<0.05) were determined using t test. […] Ratios was calculated as follows: Ratios=Organ weight/(body weight-tumor weight). Both organ weight and Organ/body weight ratios were also expressed as mean±SD, and significant differences between the treated versus the control groups (p<0.05) were determined using t test.

SMILES: CC(=O)Nc1ncc(-c2cnn(C3CCNCC3)c2)cc1O[C@H](C)c1c(Cl)ccc(F)c1Cl [Compound 18, (R)—N-(3-(1-(2,6-dichloro-3-fluorophenyl)ethoxy)-5-(1-(piperidin-4-yl)-1H-pyrazol-4-yl)pyridin-2-yl)acetamide]
- Tumor growth inhibition (result in words): significant better tumor growth inhibition compared with Crizotinib

SMILES: [2H]C([2H])([2H])C([2H])([2H])N1CCC(n2cc(-c3cnc(N)c(O[C@H](C)c4c(Cl)ccc(F)c4Cl)c3)cn2)CC1 [Compound 22, (R)-3-(1-(2,6-dichloro-3-fluorophenyl)ethoxy)-5-(1-(1-d5-ethylpiperidin-4-yl)-1H-pyrazol-4-yl)pyridin-2-amine]
- Tumor growth inhibition (result in words): significant tumor growth inhibition

SMILES: [2H]C([2H])([2H])N1CCC(n2cc(-c3cnc(N)c(O[C@H](C)c4c(Cl)ccc(F)c4Cl)c3)cn2)CC1 [Compound 20, (R)-3-(1-(2,6-dichloro-3-fluorophenyl)ethoxy)-5-(1-(1-d3-methylpiperidin-4-yl)-1H-pyrazol-4-yl)pyridin-2-amine]
- Tumor growth inhibition (result in words): significant tumor growth inhibition
